Several values for one entry are separate records, joined by “and”; a condition that tells them apart may be missing. Equal entries are not always repeated. Further values from the same series stand in other lists.

The test system of the data set is renal fibrosis. Nature of the data set: Unilateral Urethral Obstruction (UUO) renal fibrosis model in rats: body weight, clinical observations, histopathology scores, serum urea, hydroxyproline. The class given is in vivo, rat. Particulars: 30 mg/kg. From the text: Unilateral Urethral Obstruction (UUO) is a complex model of renal fibrosis (RF) disease. RF is a common outcome in progressive chronic kidney diseases, characterized by excessive formation of internal scar tissue. Surgical obstruction of urine flow can be used to trigger this disease in rodents. The UUO model allows for evaluation of potential drugs as treatment for RF.
Experimental groups for the study are outlined in Table 10. […] Briefly, animals were anesthetized using a Zoletil/Xylazine mixture (20:1, v:v) for a final dose of 25 mg/kg. The operation area was disinfected with 75% alcohol before shaving. Rats in UUO group were exposed left ureter through a small incision on the left side of the abdomen and ligated with 3-0 silk at two locations about 0.5 cm below the renal hilum. The ureters of sham rats in Group 1 were manipulated but not ligated.
Starting on Day 0, animals in group 2 were administered daily doses of the vehicle for 14 days.
Clinical signs for all animals were monitored and recorded daily. Blind clinical nephropathy scores were conducted for all animals in the study. Glomerulosclerosis, interstitial nephritis, collagen fiber deposition, nephropathy were each assessed for all experimental rats, and a total clinical score was determined for each rat. The scoring system represented the degree or percentage of lesions in the whole kidney. Clinical score assessments were performed on Day 14.
Serum for blood biochemistry analysis was collected into centrifuge tubes without coagulant four hours after final dosing. Blood plasma samples from group 3 was collected into tubes with K2EDTA four hours after final dosing. At the conclusion of the study (end of the 14-day period), animals were euthanized. Kidney tissue was collected four hours after final dosing. Ligated side kidney was divided into three copies ⅓ fix into 10% formalin for H&E analysis, ⅓ into RNA for PCR analysis of tissue biomarkers Col1a1, TGF-b1, MCP-1, IL-1b, IL-6, IL-17, TNF-a, and Timp1, and ⅓ for hydroxyproline assay analyzed by ELISA. RNA was extracted from tissue using the RNeasy mini kit (Qiagen). RNA concentration was measured using a NanoDrop One Spectrophotometer (ThermoFisher) and converted to cDNA using a High-Capacity RNA-to-cDNA kit (Invitrogen). RT-PCR was performed to measure levels of mRNA of different targets using TaqMan® Gene Expression Master Mix and TaqMan® probe/primer sets on a QuantStudio 6, Real-Time PCR System (ThermoFisher). Fold change in target gene expression was determined using the ΔΔCt method.

For the molecule `CNC(=O)c1[nH]c(C(=O)NC2CCC2)cc1O[C@@H](C)c1ccccc1` (stereo in doubt) [Example 101, N^5-cyclobutyl-N^2-methyl-3-(1-phenylethoxy)-1H-pyrrole-2,5-dicarboxamide], the Body weight is 292 g and 290 g and 309 g and 326 g (Day 8, individual animals); 296 g and 291 g and 309 g and 329 g (Day 9, individual animals); 301 g and 295 g and 320 g (Day 10, individual animals); 305 g and 300 g and 330 g and 345 g (Day 11, individual animals); 310 g and 300 g and 331 g and 340 g (Day 12, individual animals); 313 g and 308 g and 334 g and 347 g (Day 13, individual animals). For the same molecule, the Body weight (Day 14, individual animals) was 312 g (2×) and 339 g and 348 g.

The record behind these values is patent US20250263370A1 (Tay Therapeutics Limited, priority 2022, published 2025).
